Results as given in patent US11286288B2 (VALLAURIX PTE. LTD., priority 2015, dated 2022).

Assay: peptide synthesis
Settings: whole synthesis
In the case of “(C2H5)3N—CH2—CO-Nle-Glu-His-D-Phe-Arg-Trp-NH2”, the “final HPLC purity” value is reported as 99%. With “(C2H5)3N—CH2—CO-Nle-Glu-His-D-Phe-homoArg-Trp-NH2” the “final HPLC purity” value was 99.4%. With “(CH3)3N—(CH2)3—CO-Nle-Glu-His-D-Phe-Arg-Trp-NH2” the “final HPLC purity” value was 98.9%. In the case of “(CH3)3N—(CH2)3—CO-Nle-Glu-His-D-Phe-homoArg-Trp-NH2”, the “final HPLC purity” value is reported as 98.2%.
